Laboratory results taken from the supplement of paper PMC10849652.
The list shows a part of the results.

Sequences of proteins named here, by UniProt entry; tags and fusion partners are left off. A change or cut given only in a name is not applied to a line headed by its entry.
UniProt P08651, whole entry, looked up: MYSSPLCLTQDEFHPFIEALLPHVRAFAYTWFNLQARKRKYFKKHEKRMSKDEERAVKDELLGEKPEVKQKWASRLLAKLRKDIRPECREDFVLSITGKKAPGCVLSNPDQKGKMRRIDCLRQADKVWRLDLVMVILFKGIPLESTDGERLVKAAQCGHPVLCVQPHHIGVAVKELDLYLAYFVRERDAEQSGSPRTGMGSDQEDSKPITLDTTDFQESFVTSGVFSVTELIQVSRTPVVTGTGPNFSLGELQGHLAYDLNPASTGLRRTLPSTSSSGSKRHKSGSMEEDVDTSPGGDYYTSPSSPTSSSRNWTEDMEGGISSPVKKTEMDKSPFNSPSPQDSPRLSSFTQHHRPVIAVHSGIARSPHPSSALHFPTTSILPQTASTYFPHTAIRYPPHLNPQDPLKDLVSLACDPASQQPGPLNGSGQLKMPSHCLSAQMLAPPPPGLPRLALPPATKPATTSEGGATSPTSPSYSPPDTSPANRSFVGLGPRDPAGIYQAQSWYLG
UniProt Q13423: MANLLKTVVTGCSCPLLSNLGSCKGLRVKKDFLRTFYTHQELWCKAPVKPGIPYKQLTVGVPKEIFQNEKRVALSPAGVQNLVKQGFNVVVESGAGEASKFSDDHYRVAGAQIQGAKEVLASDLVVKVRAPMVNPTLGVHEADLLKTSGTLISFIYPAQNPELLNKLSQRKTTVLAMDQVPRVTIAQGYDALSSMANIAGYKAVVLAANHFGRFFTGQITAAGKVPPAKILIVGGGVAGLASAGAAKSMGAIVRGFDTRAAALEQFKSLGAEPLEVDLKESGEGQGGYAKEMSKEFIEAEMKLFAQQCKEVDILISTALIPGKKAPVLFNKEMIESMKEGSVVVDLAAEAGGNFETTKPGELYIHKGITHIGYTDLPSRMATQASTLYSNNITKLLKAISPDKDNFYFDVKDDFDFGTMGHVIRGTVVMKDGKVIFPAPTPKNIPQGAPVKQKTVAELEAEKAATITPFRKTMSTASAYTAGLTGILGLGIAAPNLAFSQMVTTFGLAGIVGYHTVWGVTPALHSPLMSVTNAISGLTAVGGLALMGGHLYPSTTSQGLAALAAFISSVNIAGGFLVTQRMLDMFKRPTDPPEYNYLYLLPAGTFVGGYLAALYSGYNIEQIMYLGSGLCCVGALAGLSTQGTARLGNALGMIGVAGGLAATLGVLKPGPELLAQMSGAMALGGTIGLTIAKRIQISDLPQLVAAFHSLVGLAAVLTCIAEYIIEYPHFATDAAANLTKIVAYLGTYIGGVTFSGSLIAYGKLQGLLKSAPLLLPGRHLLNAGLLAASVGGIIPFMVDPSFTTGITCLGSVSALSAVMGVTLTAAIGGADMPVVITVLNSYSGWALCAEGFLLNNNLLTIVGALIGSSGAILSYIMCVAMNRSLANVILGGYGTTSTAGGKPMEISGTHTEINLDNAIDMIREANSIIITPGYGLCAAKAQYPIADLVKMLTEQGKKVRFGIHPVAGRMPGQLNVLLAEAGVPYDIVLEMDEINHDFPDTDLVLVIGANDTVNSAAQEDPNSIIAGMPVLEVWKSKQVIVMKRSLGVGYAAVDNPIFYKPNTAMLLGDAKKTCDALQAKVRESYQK
UniProt Q8TDX7: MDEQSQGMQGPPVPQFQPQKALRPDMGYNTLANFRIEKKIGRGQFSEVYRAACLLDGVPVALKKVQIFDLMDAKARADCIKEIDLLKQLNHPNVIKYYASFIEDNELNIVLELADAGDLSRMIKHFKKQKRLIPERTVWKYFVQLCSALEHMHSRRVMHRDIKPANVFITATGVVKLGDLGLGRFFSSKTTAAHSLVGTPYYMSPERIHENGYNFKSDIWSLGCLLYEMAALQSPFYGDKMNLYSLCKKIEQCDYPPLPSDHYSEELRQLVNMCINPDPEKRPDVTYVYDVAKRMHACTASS
UniProt Q6KC79: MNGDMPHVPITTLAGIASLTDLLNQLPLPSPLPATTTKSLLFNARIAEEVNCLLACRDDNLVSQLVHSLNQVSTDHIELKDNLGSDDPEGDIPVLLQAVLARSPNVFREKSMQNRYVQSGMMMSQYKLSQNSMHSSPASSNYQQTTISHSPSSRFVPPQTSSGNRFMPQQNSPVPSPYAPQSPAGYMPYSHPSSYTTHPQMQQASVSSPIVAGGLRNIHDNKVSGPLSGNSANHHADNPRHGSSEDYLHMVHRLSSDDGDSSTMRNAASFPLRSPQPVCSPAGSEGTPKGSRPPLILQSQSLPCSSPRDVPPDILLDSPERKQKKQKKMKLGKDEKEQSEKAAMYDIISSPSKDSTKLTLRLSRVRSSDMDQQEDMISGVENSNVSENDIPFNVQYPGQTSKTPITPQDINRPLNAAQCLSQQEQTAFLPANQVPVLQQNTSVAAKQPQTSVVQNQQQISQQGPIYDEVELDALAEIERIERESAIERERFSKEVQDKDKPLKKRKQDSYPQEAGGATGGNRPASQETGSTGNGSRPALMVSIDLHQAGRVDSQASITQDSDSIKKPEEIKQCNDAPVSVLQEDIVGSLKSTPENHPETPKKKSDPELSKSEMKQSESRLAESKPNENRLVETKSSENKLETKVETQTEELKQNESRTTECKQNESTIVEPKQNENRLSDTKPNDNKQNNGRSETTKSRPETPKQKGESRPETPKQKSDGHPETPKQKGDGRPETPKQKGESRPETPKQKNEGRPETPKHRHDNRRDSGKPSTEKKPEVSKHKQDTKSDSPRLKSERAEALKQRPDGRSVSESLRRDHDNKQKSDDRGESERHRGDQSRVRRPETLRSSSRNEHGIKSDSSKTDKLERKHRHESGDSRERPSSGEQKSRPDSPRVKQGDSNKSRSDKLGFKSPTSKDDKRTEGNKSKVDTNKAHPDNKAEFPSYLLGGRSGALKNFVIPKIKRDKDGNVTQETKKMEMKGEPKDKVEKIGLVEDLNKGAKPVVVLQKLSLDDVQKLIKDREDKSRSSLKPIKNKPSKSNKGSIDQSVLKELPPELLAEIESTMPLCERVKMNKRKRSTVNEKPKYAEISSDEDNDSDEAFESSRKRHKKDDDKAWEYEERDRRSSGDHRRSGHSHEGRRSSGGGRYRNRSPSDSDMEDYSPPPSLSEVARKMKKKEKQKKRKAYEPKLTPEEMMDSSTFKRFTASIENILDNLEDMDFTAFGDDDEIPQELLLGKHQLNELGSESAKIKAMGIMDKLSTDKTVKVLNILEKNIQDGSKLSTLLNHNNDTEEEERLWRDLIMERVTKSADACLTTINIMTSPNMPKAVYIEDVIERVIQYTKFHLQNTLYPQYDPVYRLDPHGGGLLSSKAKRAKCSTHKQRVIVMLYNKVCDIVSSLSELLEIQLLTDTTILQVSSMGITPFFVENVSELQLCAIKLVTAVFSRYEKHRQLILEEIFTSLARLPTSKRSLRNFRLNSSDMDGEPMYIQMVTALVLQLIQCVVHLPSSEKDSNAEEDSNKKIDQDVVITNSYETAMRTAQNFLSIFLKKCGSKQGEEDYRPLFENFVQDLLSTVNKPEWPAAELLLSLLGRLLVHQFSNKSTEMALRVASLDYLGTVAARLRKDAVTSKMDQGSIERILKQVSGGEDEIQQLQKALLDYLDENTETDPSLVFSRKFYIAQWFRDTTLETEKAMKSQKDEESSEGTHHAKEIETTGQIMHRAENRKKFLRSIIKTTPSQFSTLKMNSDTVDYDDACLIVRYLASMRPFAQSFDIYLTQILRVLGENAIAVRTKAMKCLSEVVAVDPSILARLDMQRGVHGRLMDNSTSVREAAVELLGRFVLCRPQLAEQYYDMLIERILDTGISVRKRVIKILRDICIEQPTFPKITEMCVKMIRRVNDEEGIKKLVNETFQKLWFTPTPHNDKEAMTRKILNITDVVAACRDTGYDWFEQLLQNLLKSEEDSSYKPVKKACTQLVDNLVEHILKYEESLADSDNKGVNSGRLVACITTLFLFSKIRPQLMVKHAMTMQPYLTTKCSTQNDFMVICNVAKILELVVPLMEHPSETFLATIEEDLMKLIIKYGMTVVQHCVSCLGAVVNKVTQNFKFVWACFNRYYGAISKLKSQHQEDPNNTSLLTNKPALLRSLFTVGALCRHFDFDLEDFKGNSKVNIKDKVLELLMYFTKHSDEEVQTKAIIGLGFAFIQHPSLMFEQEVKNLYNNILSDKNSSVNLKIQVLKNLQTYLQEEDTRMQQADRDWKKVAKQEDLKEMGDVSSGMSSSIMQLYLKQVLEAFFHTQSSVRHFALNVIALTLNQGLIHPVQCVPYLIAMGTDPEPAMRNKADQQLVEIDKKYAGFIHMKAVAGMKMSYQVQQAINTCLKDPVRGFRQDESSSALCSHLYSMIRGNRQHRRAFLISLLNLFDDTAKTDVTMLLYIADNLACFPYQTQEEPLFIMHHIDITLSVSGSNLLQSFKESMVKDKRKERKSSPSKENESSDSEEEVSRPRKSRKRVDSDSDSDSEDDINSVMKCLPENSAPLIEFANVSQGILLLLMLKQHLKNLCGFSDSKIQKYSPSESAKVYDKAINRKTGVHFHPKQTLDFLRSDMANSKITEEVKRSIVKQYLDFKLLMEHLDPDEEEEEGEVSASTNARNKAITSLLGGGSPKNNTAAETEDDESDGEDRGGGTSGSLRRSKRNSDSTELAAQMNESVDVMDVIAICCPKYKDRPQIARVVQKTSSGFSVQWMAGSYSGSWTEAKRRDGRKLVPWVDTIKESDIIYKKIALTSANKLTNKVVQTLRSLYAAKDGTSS
UniProt P40261: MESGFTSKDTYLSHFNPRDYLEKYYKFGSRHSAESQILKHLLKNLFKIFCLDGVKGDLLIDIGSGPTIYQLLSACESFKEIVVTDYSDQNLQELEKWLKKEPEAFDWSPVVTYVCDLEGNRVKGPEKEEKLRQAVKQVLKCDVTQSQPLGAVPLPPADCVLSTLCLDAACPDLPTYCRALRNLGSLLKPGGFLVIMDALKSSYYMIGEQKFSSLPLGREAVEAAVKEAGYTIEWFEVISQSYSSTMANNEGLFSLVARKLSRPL
UniProt Q9H9Q4: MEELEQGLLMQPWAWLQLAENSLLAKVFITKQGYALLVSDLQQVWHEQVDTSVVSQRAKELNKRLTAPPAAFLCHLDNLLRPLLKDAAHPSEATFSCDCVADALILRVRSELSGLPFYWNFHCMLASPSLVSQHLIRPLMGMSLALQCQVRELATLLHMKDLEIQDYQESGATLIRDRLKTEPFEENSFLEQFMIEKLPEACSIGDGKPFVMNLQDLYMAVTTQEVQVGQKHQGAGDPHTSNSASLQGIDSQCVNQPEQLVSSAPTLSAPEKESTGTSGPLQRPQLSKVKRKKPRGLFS
UniProt P04150: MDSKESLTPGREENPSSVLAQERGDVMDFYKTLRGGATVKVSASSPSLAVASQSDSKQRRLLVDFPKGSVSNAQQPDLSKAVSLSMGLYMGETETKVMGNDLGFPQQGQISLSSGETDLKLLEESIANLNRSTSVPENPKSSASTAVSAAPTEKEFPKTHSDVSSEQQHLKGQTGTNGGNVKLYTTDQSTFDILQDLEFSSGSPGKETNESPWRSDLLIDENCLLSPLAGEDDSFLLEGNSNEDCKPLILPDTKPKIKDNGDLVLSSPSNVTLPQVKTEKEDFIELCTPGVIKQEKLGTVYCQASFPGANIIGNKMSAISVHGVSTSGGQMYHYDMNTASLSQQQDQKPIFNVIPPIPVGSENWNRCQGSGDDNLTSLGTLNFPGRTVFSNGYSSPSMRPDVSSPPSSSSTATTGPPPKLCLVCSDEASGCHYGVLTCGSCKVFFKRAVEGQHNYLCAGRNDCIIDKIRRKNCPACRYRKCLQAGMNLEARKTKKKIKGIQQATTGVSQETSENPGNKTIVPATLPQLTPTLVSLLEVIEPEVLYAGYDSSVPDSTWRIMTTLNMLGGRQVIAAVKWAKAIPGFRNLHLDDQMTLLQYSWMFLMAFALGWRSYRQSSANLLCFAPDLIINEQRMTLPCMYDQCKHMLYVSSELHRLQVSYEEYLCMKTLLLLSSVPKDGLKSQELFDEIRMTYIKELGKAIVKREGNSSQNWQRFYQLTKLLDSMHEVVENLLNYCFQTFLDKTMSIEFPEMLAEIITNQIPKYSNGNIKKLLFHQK
UniProt Q9NPE2: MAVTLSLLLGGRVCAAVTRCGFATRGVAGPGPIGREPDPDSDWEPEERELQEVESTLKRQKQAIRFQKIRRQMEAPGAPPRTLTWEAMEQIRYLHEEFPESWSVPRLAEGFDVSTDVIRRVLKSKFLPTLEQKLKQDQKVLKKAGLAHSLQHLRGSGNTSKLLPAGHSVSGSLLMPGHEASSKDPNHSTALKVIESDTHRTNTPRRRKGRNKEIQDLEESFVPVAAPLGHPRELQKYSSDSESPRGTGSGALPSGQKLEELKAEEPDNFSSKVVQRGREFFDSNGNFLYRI
UniProt Q9NX24: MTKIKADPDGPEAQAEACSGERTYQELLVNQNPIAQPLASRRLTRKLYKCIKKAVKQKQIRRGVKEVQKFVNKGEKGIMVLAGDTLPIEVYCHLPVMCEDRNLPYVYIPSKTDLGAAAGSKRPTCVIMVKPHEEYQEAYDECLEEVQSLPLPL

Assays:
Assay in all cases: log2 fold change, soluble protein after heating vs DMSO (PISA); higher = thermal stabilisation; K562 cells, 10 uM, 30 min; active = over 0.2 and 3.5 SD of the protein, either way, in both replicates (recomputed)
erlotinib = compound: C#Cc1cccc(Nc2ncnc3cc(OCCOC)c(OCCOC)cc23)c1 [erlotinib]
Method in brief: (§1)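 Aliquots of K562 cells (2×10^6 cells/mL) treated with 10 μM compound for 30 min were heated for 3 min over 48°C-58°C. After pooling and extraction in PBS with 0.5% NP-40 at 4°C, soluble protein from a 21,000xg, 90 min spin was quantified by TMTpro 16plex LC-MS/MS with channel sums equalised. Thermal stability is expressed against control samples, from duplicates, as a log2 fold change.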

[1] = compound: C/C(=N\NC(=O)C1=CC(=CC=C1)S(=O)(=O)N2CCOCC2)/C3=C(C=CC(=C3)Cl)O
Method in brief: as §1

[2] = compound: C1=CC(=C(C=C1Cl)C2=NC3=NC=CN=C3C(=N2)NC4=CC=NC=C4)F
Method in brief: as §1

[3] = compound: C1=CC(=CC=C1C2=NC3=C(N2)C=C(C=C3)C(=O)N)OC4=CC=C(C=C4)Cl
Method in brief: as §1

[4] = compound: C1=CC2=C(C=CC(=C2)/C=C\3/C(=O)NC(=NCC4=CC=CS4)S3)N=C1
Method in brief: as §1

[5] = compound: C1=CC2=NC=CN=C2C=C1/C=C/3\C(=O)NC(=O)S3
Method in brief: as §1

[6] = compound: C1=CC=C(C=C1)C2=NC(=C(N2)C3=CC=NC=C3)C4=CC(=C(C=C4)Cl)O
Method in brief: as §1

[7] = compound: C1=CC=C2C(=C1)C3=NNC4=CC=CC(=C43)C2=O
Method in brief: as §1

[8] = compound: C1CCN(C1)C(=O)NC2=CC=CC(=C2)NC3=NC=C(C(=N3)NCCC4=CN=CN4)Br
Method in brief: as §1

[9] = compound: C1CN(CCC1(CC2=CC=C(C=C2)Cl)N)C3=NC=NC4=C3C=CN4
Method in brief: as §1

Measured: log2 fold change

NFIC (UniProt P08651)
inactive: erlotinib -0.027 | [1] -0.057 | [2] -0.071 | [3] 0.032 | [4] 0.038 | [5] -0.009 | [6] -0.008 | [7] -0.021 | [8] 0.012 | [9] 0.065

NFAT5 isoform 5 (UniProt O94916)
inactive: erlotinib 0.001 | [1] 0.214 | [2] -0.12 | [3] 0.021 | [4] 0.15 | [5] 0.003 | [7] -0.129 | [8] 0.119 | [9] -0.01

NES (UniProt P48681)
inactive: erlotinib -0.064 | [1] -0.15 | [2] -0.33 | [3] -0.029 | [4] 0.011 | [5] 0.166 | [6] -0.019 | [7] 0.04 | [8] 0.023 | [9] -0.111

NNT (UniProt Q13423)
inactive: erlotinib -0.008 | [1] 0.051 | [2] 0.089 | [3] -0.012 | [4] 0.044 | [5] 0.01 | [6] 0.005 | [7] -0.005 | [8] -0.001 | [9] 0.043

NEURL4 (UniProt Q96JN8)
inactive: erlotinib -0.065 | [1] -0.41 | [3] 0.246 | [4] 0.188 | [5] -0.094 | [6] -0.08 | [7] -0.104

2 records drawn at random from those above:
NES (UniProt P48681)
inactive: erlotinib -0.064 | [1] -0.15 | [2] -0.33 | [3] -0.029 | [4] 0.011 | [5] 0.166 | [6] -0.019 | [7] 0.04 | [8] 0.023 | [9] -0.111

NFIC (UniProt P08651)
inactive: erlotinib -0.027 | [1] -0.057 | [2] -0.071 | [3] 0.032 | [4] 0.038 | [5] -0.009 | [6] -0.008 | [7] -0.021 | [8] 0.012 | [9] 0.065

Next part

NEK7 (UniProt Q8TDX7)
inactive: erlotinib 0.022 | [1] 0 | [2] 0.021 | [3] -0.003 | [4] 0.073 | [5] 0.013 | [6] 0.01 | [7] -0.002 | [8] 0.013 | [9] 0.141

NSD3 (UniProt Q9BZ95)
inactive: erlotinib -0.126 | [1] -0.11 | [2] 0.087 | [3] 0.044 | [4] -0.083 | [5] -0.203 | [7] 0.026 | [8] -0.208 | [9] -0.435

NIPBL (UniProt Q6KC79)
inactive: erlotinib 0.207 | [1] -0.061 | [2] -0.088 | [3] -0.065 | [4] 0.138 | [5] 0.033 | [7] -0.057 | [8] -0.154 | [9] -0.091

NONO (UniProt Q15233)
inactive: erlotinib 0.063 | [1] 0.022 | [2] -0.29 | [3] 0.049 | [4] -0.041 | [5] 0.103 | [6] -0.003 | [7] -0.05 | [8] -0.074 | [9] -0.254

NNMT (UniProt P40261)
inactive: erlotinib 0.037 | [1] 0.062 | [2] 0.123 | [3] 0.021 | [4] 0.074 | [5] 0 | [7] 0.028 | [8] 0.045 | [9] 0.043

NHEJ1 (UniProt Q9H9Q4)
inactive: erlotinib -0.035 | [1] 0.094 | [2] 0.103 | [3] 0.016 | [4] -0.045 | [5] 0.055 | [6] 0 | [7] 0.081 | [8] -0.082 | [9] 0.15

NR3C1 isoform 3 (UniProt P04150)
inactive: erlotinib 0.03 | [1] -0.61 | [2] 0.103 | [3] -0.08 | [4] 0.161 | [8] -0.13 | [9] -0.098

NEMF (UniProt O60524)
inactive: erlotinib -0.055 | [1] -0.113 | [2] -0.59 | [3] 0.027 | [4] -0.043 | [5] -0.014 | [6] -0.031 | [7] 0.034 | [8] 0.01 | [9] -0.278

NGRN (UniProt Q9NPE2)
inactive: erlotinib -0.008 | [1] -0.089 | [2] -0.046 | [3] 0.033 | [4] 0.025 | [5] -0.005 | [7] -0.141 | [8] -0.024 | [9] -0.068

NHP2 (UniProt Q9NX24)
inactive: erlotinib -0.024 | [1] -0.151 | [2] -0.179 | [3] 0.011 | [4] -0.107 | [5] 0.032 | [6] -0.08 | [7] -0.02 | [8] -0.019 | [9] -0.075
